This note sets out measurements from PubChem BioAssay AID493014 (National Center for Advancing Translational Sciences (NCATS), 2011).

The experiment can be described thus: qHTS Assay to Find Inhibitors of Chronic Active B-Cell Receptor Signaling. Conditions: ABC-DLBCL IkBa-CBG/CBR reporter, luminescence ratio (green luciferase fused to IkBa over red control in TMD8 lymphoma cells), 4 h. The essentials:
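Doxycycline induced both beetle luciferases in TMD8 lymphoma cells; IKK-driven degradation limits the IkappaBalpha-fused green signal, while red luminescence normalises for cell number and nonspecific effects. Compounds tested up to 46 uM, 4 hrs.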
(In general: Quantitative high-throughput screening tests each substance at several concentrations.)

Where [1] appears, read: measured here: CBR red luminescence, cell number.
The mark [2] stands for this setting: measured here: IkBa-CBG green luminescence.

Some of the results follow. These are further read-outs of the screen, such as a control signal, another cell line or another target. No call is given for them. Compounds called inactive in the main read-out are mostly missing here. The note in brackets gives the kind of curve behind each potency; many fits are weak.

Broadly, the AC50 is the concentration at which the activity in the assay is half-maximal. `C/C(=N\NC(=O)CO/N=C(\C)c1cccs1)c1ccc(N)cc1`: under setting [1], the AC50 is 35.5 µM [falling, single point].
The same measure, in the same setting: for `C=CCNC(=O)c1onc(CSc2cc(C)cc(C)c2)c1C(=O)NCC=C` the value was 35.5 µM [falling, single point]; for `Cc1csc(SCC(=O)Nc2ccc3c(c2)OCCO3)n1`, 20 µM [falling, partial curve, poor fit].
For `NNc1nc2c(Cl)ccc(Cl)c2s1`, the AC50 under setting [1] was 5.17 µM [falling, partial curve] and the AC50 under setting [2] is 23.1 µM [rising, partial curve, poor fit].
For the compound `Cc1cc(C(=O)NN)c2cc(Br)ccc2n1`, the AC50 under setting [1] is 10.3 µM [rising, partial curve] and the AC50 under setting [2] is 7.31 µM [falling, partial curve].
`Cc1ccc(S(=O)(=O)N2CCN(Cc3cc(=O)n4ccccc4n3)CC2)c(C)c1`: the AC50 under setting [1] was 3.66 µM [rising, partial curve, poor fit].
Regarding `O=C(CSc1nnc(-c2ccccc2Br)o1)Nc1cccc2ccccc12`, under setting [1], the AC50 is 0.231 µM [falling, full curve].
Turning to `CCC/C(=N/NC(=O)c1ccc2c(c1)OCO2)c1cccs1`, under setting [1], the AC50 is 18.4 µM [falling, partial curve].
On the same count and under the same terms, for `CC(C)(C)OC(=O)N1CCN(c2ccc(CNC(=O)c3ccc(Cl)cc3)cc2)CC1` the value was 20 µM [falling, partial curve, poor fit]; for `CC(C)NC(=O)C(=O)NNC(=O)CCc1ccccc1`, 35.5 µM [rising, single point]; for `CC1=CCC[C@@H]2[C@@](C)(CC/C(C)=C/C(=O)O)[C@H](C)CC[C@@]12C`, 20.6 µM [rising, single point].
For `C=CCNc1nc(SC)nc2ccsc12`, the AC50 under setting [1] was 0.731 µM [rising, full curve, poor fit].
As for `Cc1ccc(CSCCNC(=O)CSCc2ccc([N+](=O)[O-])cc2)cc1`, the AC50 under setting [1] was 8.2 µM [falling, partial curve, poor fit].
Consider `COc1cccc(C(=O)COc2cccc(NC(=O)c3cccc([N+](=O)[O-])c3)c2)c1`, for which the AC50 under setting [1] is 11.2 µM [falling, partial curve].
With `Cc1cc(=O)oc(C)c1C(=O)Nc1ccc2nsnc2c1`, the AC50 under setting [1] is 0.411 µM [falling, partial curve, poor fit].
For `CC(C)CCc1c(O)nc(SCC(C)C)[nH]c1=O`, under setting [1], the AC50 is 2.24 µM [rising, partial curve, poor fit].
Same read-out and setting: for `Cc1cc(C)n2nc(C(=O)OCC(=O)Nc3ccc4c(c3)OC(F)(F)O4)nc2n1` the value was 32.6 µM [falling, single point]; for `CCOc1cc(/C=N/NC(=O)c2ccc(N(C)S(=O)(=O)c3ccccc3)cc2)ccc1OC`, 35.5 µM [falling, single point]; for `N/C(=N\c1nc2ccccc2o1)NC(=O)c1ccccc1NC(=O)c1ccccc1`, 5.17 µM [falling, partial curve, poor fit].
Consider `CCCCOP(=O)(c1ccc(N(C)C)cc1)C(O)c1ccccc1F` (stereo unspecified), for which, under setting [1], the AC50 was 0.0891 µM [falling, full curve, poor fit].
For the compound `COc1ccc(C(=O)Nc2cc3c(cc2Cl)OCCCO3)cc1`, the AC50 was 14.6 µM [rising, partial curve] under setting [1] and 16.4 µM [falling, partial curve, poor fit] under setting [2].
In the case of `CCn1c(C(=O)NCc2ccccn2)cc2sccc21`, the AC50 under setting [1] is 4.11 µM [falling, full curve].
Turning to `CCOc1cc(/C=C2/SC(=S)NC2=O)ccc1OC(=O)c1ccco1`, under setting [1], the AC50 is 8.91 µM [falling, partial curve, poor fit].
`CCOC(=O)c1c(NC(=S)NC)sc2c1CC(C)(C)SC2`: the AC50 is 23.1 µM [falling, single point] under setting [1] and 18.4 µM [rising, partial curve, poor fit] under setting [2].
`COc1c(C)cc(Br)cc1C(=O)Nc1cccc(NC(=O)c2ccco2)c1`: the AC50 under setting [1] is 2.06 µM [rising, partial curve, poor fit].
For `COc1ccc2nc(NC(=O)C3CCCO3)sc2c1` (stereo unspecified), the AC50 under setting [1] was 8.91 µM [falling, partial curve].
In the case of `Cc1ncoc1C(=O)Nc1cccc(Cl)c1C`, the AC50 under setting [1] is 29.1 µM [falling, single point].
Turning to `COc1ccccc1Cc1nc(-c2ccc(C)cc2)no1`, under setting [1], the AC50 is 29.1 µM [falling, single point].
Consider `CCn1c(=O)ccc2cc([N+](=O)[O-])ccc21`, for which the AC50 by setting is: under setting [1], 11.2 µM [rising, partial curve, poor fit]; under setting [2], 22.4 µM [falling, partial curve, poor fit].
Turning to `Cc1ccc(OC(=O)CCc2c(C)nc3ncnn3c2C)cc1`, the AC50 under setting [1] was 14.6 µM [rising, partial curve, poor fit].
For the compound `CCC1(c2ccccc2)NC(=S)N(c2ccc(C)c(C)c2)N1` (stereo unspecified), the AC50 under setting [1] is 20 µM [rising, partial curve, poor fit].
For `CCn1c(=S)sc2c(=O)n(CC(=O)Nc3cccc(Cl)c3)c(C)nc21`, the AC50 under setting [1] is 7.08 µM [falling, partial curve, poor fit].
For the compound `O=C(Cn1c(CO)nc2ccccc21)NCCc1ccc(F)cc1`, the AC50 under setting [1] is 0.891 µM [rising, full curve].
On the same count and under the same terms, for `COc1cccc(CNc2ncnc3cc(Cl)ccc23)c1` the value was 10 µM [falling, partial curve].
As to `Cc1sc(NC(=O)CSC2=NCCS2)nc1-c1ccccc1`, the AC50 under setting [1] was 8.2 µM [falling, partial curve, poor fit].
Turning to `C#CCNC(=O)C1=C[C@H](c2coc3ccccc3c2=O)C[C@H](OCCCCO)O1`, under setting [1], the AC50 is 0.112 µM [rising, full curve, poor fit].
Turning to `Cc1ccnc(NCc2ccc(Br)cc2)c1`, under setting [1], the AC50 was 2.51 µM [rising, full curve, poor fit].
Take `CN(C)CCn1c2c(c(SCC(=O)Nc3cccc4ccccc34)nc1=O)CCC2`: under setting [1], the AC50 is 7.31 µM [falling, partial curve, poor fit].
Take `CSC1CCCCC1(O)CSc1nc2c(cc1C#N)CCCC2` (stereo unspecified): under setting [1], the concentration at half-maximal activity (AC50) is 3.26 µM [falling, full curve].
As for `Cc1ccccc1/[N+]([O-])=C/c1ccncc1`, the AC50 reads like this: under setting [1], 18.4 µM [falling, partial curve]; under setting [2], 14.6 µM [rising, partial curve, poor fit].
